Results are given in words; binding and its absence hold for the method and conditions named. For some of these results: Binding seen in cells or lysates may run through a third protein. Some entries that bind do so weakly or less than the wild type.

Chains of the proteins cited; added tags and fusions are not shown. Lines headed by an entry give the natural chain unless they say otherwise; changes in a name come on top.
UniProt O82794: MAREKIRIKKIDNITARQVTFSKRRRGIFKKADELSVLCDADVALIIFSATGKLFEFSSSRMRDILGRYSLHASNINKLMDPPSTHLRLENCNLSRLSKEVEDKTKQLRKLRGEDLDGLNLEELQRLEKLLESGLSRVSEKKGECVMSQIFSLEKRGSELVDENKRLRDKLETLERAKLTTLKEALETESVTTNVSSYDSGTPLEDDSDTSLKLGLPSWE
UniProt O64645: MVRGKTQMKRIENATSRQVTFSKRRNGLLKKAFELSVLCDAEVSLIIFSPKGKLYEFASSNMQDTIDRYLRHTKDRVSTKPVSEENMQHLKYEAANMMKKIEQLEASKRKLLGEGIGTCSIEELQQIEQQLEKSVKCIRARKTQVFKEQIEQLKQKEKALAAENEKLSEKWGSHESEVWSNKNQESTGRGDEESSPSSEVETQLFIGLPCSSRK
UniProt P17839: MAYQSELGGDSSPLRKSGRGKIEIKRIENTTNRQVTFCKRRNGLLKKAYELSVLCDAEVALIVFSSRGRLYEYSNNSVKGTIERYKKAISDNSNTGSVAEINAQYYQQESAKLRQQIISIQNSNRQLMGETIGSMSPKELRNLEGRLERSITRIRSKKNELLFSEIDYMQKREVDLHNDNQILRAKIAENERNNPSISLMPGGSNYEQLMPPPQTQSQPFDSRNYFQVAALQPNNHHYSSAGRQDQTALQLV
UniProt P35631: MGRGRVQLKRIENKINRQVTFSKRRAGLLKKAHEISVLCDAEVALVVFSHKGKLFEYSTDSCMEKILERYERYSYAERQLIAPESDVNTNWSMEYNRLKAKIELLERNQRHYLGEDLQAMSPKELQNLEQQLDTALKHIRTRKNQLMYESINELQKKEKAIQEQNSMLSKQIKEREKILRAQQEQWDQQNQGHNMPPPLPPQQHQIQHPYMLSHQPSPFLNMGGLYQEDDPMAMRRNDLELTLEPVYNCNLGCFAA
UniProt O82743: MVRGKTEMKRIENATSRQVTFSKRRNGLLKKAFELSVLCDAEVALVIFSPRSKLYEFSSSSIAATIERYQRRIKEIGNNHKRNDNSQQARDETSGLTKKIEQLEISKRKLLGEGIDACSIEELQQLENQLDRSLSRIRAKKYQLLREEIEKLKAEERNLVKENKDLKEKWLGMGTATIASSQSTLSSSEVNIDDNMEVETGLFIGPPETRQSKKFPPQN
UniProt Q38838: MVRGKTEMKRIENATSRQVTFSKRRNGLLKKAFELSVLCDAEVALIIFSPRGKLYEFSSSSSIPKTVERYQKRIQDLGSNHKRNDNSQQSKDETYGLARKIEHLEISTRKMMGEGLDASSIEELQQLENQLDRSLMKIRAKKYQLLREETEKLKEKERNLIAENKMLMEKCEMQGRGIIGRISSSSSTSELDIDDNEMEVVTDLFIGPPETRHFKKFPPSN
UniProt Q9FIS1: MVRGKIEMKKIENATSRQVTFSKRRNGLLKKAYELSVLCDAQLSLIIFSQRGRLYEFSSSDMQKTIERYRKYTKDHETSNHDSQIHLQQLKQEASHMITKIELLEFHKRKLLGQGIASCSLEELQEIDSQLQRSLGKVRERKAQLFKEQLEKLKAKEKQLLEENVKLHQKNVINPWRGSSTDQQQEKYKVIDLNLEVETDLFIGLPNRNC
UniProt Q38840: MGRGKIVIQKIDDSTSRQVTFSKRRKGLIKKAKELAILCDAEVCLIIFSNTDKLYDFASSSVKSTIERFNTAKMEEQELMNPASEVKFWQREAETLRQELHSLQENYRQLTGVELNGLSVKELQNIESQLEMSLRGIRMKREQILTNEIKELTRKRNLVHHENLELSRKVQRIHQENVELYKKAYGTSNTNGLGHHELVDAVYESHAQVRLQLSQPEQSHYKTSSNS
UniProt Q9SZJ6: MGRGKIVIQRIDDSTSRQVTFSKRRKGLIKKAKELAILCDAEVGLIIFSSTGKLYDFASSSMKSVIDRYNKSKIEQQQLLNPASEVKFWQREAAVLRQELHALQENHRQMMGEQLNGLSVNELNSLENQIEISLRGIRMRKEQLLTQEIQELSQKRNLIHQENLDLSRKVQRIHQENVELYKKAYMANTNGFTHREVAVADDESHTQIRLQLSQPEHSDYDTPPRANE

We go through eight substances from article PMC2688274.

The target in assay [1] is SEP3-CFP / SEP3-YFP (Arabidopsis thaliana) (UniProt O22456). Description: FRET or BRET; FRET-FLIM in Arabidopsis leaf protoplasts; carboxy-terminal CFP (donor) and YFP (acceptor) fusions; donor lifetime measured on the central part of the nucleus, at least ten cells a combination in three experiments.
For assay [2], the target named is AGL24 with SOC1 (partners in the yeast three-hybrid complexes) (Arabidopsis thaliana) (UniProt O82794+O64645). The experiment in a line: yeast three-hybrid; yeast PJ69-4; dimer clones (one partner fused to GAL4-AD, the other to a nuclear localization signal only, pARC352) mated with single proteins fused to GAL4-BD; growth on -L -W -A -H with 1, 5 or 10 mM 3-AT at 20°C for 7 days, and LacZ assay.

For assay [3], the target named is AG with SEP3ΔC1 (dimer in the yeast three-hybrid test) (Arabidopsis thaliana) (UniProt P17839+O22456). The description is as above.
Assay [4] deals with AG with SEP3ΔC2 (dimer in the yeast three-hybrid test) (Arabidopsis thaliana) (UniProt P17839+O22456). Described as above.
The target in assay [5] is SEP3ΔC2 (…3 lacking 67 amino acids at its carboxyl end) (Arabidopsis thaliana) (UniProt O22456). The experiment in a line: two-hybrid; yeast; truncated SEP3 proteins fused to GAL4-BD tested for dimerisation with AG.
Assay [6] addresses SEP3ΔC1 (…3 lacking the last 80 amino acids of the carboxyl terminus) (Arabidopsis thaliana) (UniProt O22456). The assay is described as above.

On to AP1-CFP (from UniProt P35631 1-256), for which the binding result in assay [1] is “binds”. Regarding AGL19 (from UniProt O82743 1-219), in assay [2], the binding entry is given as “binds”. Turning to AGL14 (from UniProt Q38838 1-221), the binding result in assay [2] was “binds”. As for AGL42 (from UniProt Q9FIS1 1-210), the binding entry in assay [2] is “binds”. With AGL17 (from UniProt Q38840 1-227), in assay [2], the binding result is on record as “binds”. With … (STK) (from UniProt Q38836 1-230), the binding entry in assay [3] was “no binding”; in assay [4], “binds”. In the case of AGL21 (from UniProt Q9SZJ6 1-228), the binding entry in assay [2] is given as “binds”. For the substance “AGAMOUS (AG) (from UniProt P17839 1-252)”, the binding result in assay [5] and in assay [6] was “binds” in each case.
